The record followed here is article PMC11528518.

Sequences of proteins named here, by UniProt entry; tags and fusion partners are left off.
UniProt Q9WUK6: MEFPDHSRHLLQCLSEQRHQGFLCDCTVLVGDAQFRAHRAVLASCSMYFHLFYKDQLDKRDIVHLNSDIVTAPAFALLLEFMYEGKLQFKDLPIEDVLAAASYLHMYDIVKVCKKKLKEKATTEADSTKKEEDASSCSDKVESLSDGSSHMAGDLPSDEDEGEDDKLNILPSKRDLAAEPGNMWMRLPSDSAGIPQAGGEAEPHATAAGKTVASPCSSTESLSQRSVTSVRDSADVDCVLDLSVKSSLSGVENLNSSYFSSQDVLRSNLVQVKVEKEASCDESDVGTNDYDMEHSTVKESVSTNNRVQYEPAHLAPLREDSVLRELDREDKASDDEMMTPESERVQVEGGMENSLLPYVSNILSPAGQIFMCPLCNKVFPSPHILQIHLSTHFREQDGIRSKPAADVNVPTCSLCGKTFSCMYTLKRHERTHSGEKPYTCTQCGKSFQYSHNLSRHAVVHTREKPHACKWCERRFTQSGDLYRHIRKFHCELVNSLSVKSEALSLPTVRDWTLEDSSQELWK

For the assay, the target named is ZBTB18 (mouse (endogenous in 32D)) (UniProt Q9WUK6). Put plainly: co-IP; immunoprecipitation with ZBTB18 antibodies from 32D cells transfected with Flag-p21 plasmid; Western blot for p21. Background: Immunoblotting shows a protein as a band on a membrane.

No constants are given. Whether binding was seen depends on the method and setting. In cells and extracts the contact can be indirect. Some entries that bind do so weakly or less than the wild type. Where a sequence is shown, tags or fusion partners need not be part of it.

B1: Flag-tagged p21 (protein, UniProt P39689 1-159)
chain: MSNPGDVRPVPHRSKVCRCLFGPVDSEQLRRDCDALMAGCLQEARERWNFDFVTETPLEGNFVWERVRSLGLPKVYLSPGSRSRDDLGGDKRPSTSSALLQGPAPEDHVALSLSCTLVSERPEDSPGGPGTSQGRKRRQTSLTDFYHSKRRLVFCKRKP
On to B1, for which the binding result is on record as “binds”.
